Reference: PMC6864781, “Synthesis, Antitumor Activity, and Docking Analysis of New Pyrido[3′,2′:4,5]furo(thieno)[3,2-d]pyrimidin-8-amines” (Molecules, 2019)

System: DNA of tumor sarcoma 180 (S-180)
Test: Influence on methylation of DNA of tumor sarcoma 180 in vitro (5-MC content)
Assay type: cell-based
Settings: 3 × 10^−6 M compound, tumor homogenate, 24 h at 37 °C; S-180 control 42.66
Experimental: It is known that DNA methylation in cancer plays a variety of roles, helping to change the healthy regulation of gene expression to a disease pattern. DNA hypermethylation in neoplasia is a specific epigenetic sign that can guide the diagnosis and treatment of this disease. We studied the effect of synthesized substances on tumor DNA in vitro. After the incubation of tumor cells with the studied compounds, the isolated DNA was hydrolyzed to nitrogen bases. In the studied DNA, the nucleotide composition (guanine (G), cytosine (C), 5-methylcitosine (5-MC), adenine (A), thymine (T)) complied with the rules of Chargaff. Isolated DNA belonged to the AT type, and the amount of basic bases (G + C + 5-MC) within them was 42.24–44.64 mol %, which is typical for eukaryotic DNA. Almost the same content of basic bases (G, C, A, and T) was observed, while a clear difference between DNA samples was found only in relation to the content of 5-MC, which indicated the demethylating ability of the compounds.
The influence of synthesized compounds on the methylation of DNA of tumor sarcoma 180 (S-180) was studied in vitro. Transplanted S-180 was isolated from animals after slaughter by decapitation under ether narcosis. A 3 × 10^−6 M solution of compounds (solvent: carboxymethylcellulose) was added to the tumor homogenate (12.5 mL of a solution per 10 g of tumor), and the mixture was incubated for 24 h at 37 °C. After the incubation, tumor DNA was extracted using the phenol–chloroform method. Hydrolysis to the nitrogen bases was carried out in sealed glass ampoules in 85% formic acid at 176 °C for 1 h (0.1 mL of acid per 1 mg of DNA). The separation of nitrogen bases (guanine (G), cytosine (C), 5-methylcitosine (5-MC), adenine (A), and thymine (T)) was produced by thin-layer chromatography in the solvent n-butanol/water/ammonia. Spectrophotometry of the eluates of all bases was made against eluates from the respective control areas of the chromatograms. In our studies, the well-known antitumor drug doxorubicin (manufactured by EBEWE Pharma Ges.m.b.H. Nfg. KG, 4866 Unterach, Austria) was used as a standard preparation. The data were statistically processed using Student’s and Fischer’s tests (p < 0.05).

Structure (SMILES)	Content of Bases in DNA, G + C + 5-MC [mol %]
CC(C)c1nc2oc3c(NCCO)ncnc3c2c2c1COC(C)(C)C2 [Compound 7a]	43.50
CCN(CC)CCNc1ncnc2c1oc1nc(C(C)C)c3c(c12)CC(C)(C)OC3 [Compound 7c, N,N-Diethyl-N′-(5-isopropyl-2,2-dimethyl-1,4-dihydro-2H-pyrano[4″,3″:4′,5′]pyrido[3′,2′:4,5]furo[3,2-d]pyrimidin-8-yl)ethane-1,2-diamine]	42.72
CCN(CC)CCNc1ncnc2c1sc1nc(-c3ccco3)c3c(c12)CCCC3 [Compound 5e, N,N-Diethyl-N′-[5-(2-furyl)-1,2,3,4-tetrahydropyrimido[4′,5′:4,5]thieno[2,3-c]isoquinolin-8-yl]ethane-1,2-diamine]	42.44
CC1CCN(c2ncnc3c2sc2nc(-c4ccco4)c4c(c23)CCCC4)CC1 [Compound 5b, 5-(2-Furyl)-8-(4-methylpiperidin-1-yl)-1,2,3,4-tetrahydropyrimido[4′,5′:4,5]thieno[2,3-c]isoquinoline]	43.74
c1coc(-c2nc3sc4c(N5CCCCC5)ncnc4c3c3c2CCCC3)c1 [Compound 5a, 5-(2-Furyl)-8-piperidin-1-yl-1,2,3,4-tetrahydropyrimido[4′,5′:4,5]thieno[2,3-c]isoquinoline]	42.50
CC(C)c1nc2sc3c(NCC4CCCO4)ncnc3c2c2c1COC(C)(C)C2 (centres unmarked) [Compound 7m, 5-Isopropyl-2,2-dimethyl-N-(tetrahydrofuran-2-ylmethyl)-1,4-dihydro-2H-pyrano[4″,3″:4′,5′]pyrido[3′,2′:4,5]thieno[3,2-d]pyrimidin-8-amine]	43.06
CC(C)c1nc2oc3c(NCc4cccnc4)ncnc3c2c2c1COC(C)(C)C2 [Compound 7h]	43.20
COc1ccc(CCNc2ncnc3c2oc2nc(C(C)C)c4c(c23)CC(C)(C)OC4)cc1OC [Compound 7e, N-[2-(3,4-Dimethoxyphenyl)ethyl]-5-isopropyl-2,2-dimethyl-1,4-dihydro-2H-pyrano[4″,3″:4′,5′]pyrido[3′,2′:4,5]furo[3,2-d]pyrimidin-8-amine]	44.00
CC(C)Cc1nc2oc3c(NCCO)ncnc3c2c2c1COC(C)(C)C2 [Compound 7j, 2-[(5-Isobutyl-2,2-dimethyl-1,4-dihydro-2H-pyrano[4″,3″:4′,5′]pyrido[3′,2′:4,5]furo[3,2-d]pyrimidin-8-yl)amino]ethanol]	43.20
c1coc(-c2nc3sc4c(N5CCOCC5)ncnc4c3c3c2CCCC3)c1 [Compound 5c, 5-(2-Furyl)-8-morpholin-4-yl-1,2,3,4-tetrahydropyrimido[4′,5′:4,5]thieno[2,3-c]isoquinoline]	42.44
c1coc(-c2nc3sc4c(NCC5CCCO5)ncnc4c3c3c2CCCC3)c1 (centres unmarked) [Compound 5f, 5-(2-Furyl)-N-(tetrahydrofuran-2-ylmethyl)-1,2,3,4-tetrahydropyrimido[4′,5′:4,5]thieno[2,3-c]isoquinolin-8-amine]	44.02
CC(C)CNc1ncnc2c1sc1nc(-c3ccco3)c3c(c12)CCCC3 [Compound 5d, 5-(2-Furyl)-N-isobutyl-1,2,3,4-tetrahydropyrimido[4′,5′:4,5]thieno[2,3-c]isoquinolin-8-amine]	42.58
COc1cccc2c1C(=O)c1c(O)c3c(c(O)c1C2=O)C[C@@](O)(C(=O)CO)C[C@@H]3O[C@H]1C[C@H](N)[C@H](O)[C@H](C)O1 [Doxorubicin, doxorubicin, reference compound]	43.41
CC(C)c1nc2oc3c(NCC4CCCO4)ncnc3c2c2c1COC(C)(C)C2 (centres unmarked) [Compound 7f, 5-Isopropyl-2,2-dimethyl-N-(tetrahydrofuran-2-ylmethyl)-1,4-dihydro-2H-pyrano[4″,3″:4′,5′]pyrido[3′,2′:4,5]furo[3,2-d]pyrimidin-8-amine]	42.82
CC(C)c1nc2oc3c(NCCN4CCOCC4)ncnc3c2c2c1COC(C)(C)C2 [Compound 7d]	43.44
CC(C)c1nc2oc3c(NCCN(C)C)ncnc3c2c2c1COC(C)(C)C2 [Compound 7b]	44.16
CC(C)c1nc2oc3c(NCc4ccco4)ncnc3c2c2c1COC(C)(C)C2 [Compound 7g, N-(2-Furylmethyl)-5-isopropyl-2,2-dimethyl-1,4-dihydro-2H-pyrano[4″,3″:4′,5′]pyrido[3′,2′:4,5]furo[3,2-d]pyrimidin-8-amine]	43.32
CC(C)Cc1nc2oc3c(NCCCO)ncnc3c2c2c1COC(C)(C)C2 [Compound 7k]	42.70
CCOC(=O)N1CCN(c2ncnc3c2sc2nc(C(C)C)c4c(c23)CC(C)(C)OC4)CC1 [Compound 7l, Ethyl 4-(5-isopropyl-2,2-dimethyl-1,4-dihydro-2H-pyrano[4″,3″:4′,5′]pyrido[3′,2′:4,5]thieno[3,2-d]pyrimidin-8-yl)piperazine-1-carboxylate]	43.76
CC(C)c1nc2oc3c(NCCCN(C)C)ncnc3c2c2c1COC(C)(C)C2 [Compound 7i]	44.64
